Experimental data: PubChem BioAssay AID1159578 (Peter MacCallum Cancer Centre, 2015)
In all, the deposit lists about 18,000 reagents; below is a part drawn at random. About 1,030 of them (5.7%) were called active. 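Inactive calls also include pools with fewer than 3300 nuclei, whose migration was not assessed.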 The raw values are shown without normalisation.

Aim: 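Knock-downs that alter how fast lymphatic endothelial cells migrate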 (primary screen)
Cells: human lymphatic endothelial cells
Knock-down reagent: siRNA pool against human genes, 40 nM
Duration: 48 h after transfection
Read-out: 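Cells stained with dye and imaged after a scratch; covered wound area and nuclei counted, duplicates averaged, migration set against mock wells and turned into a robust z-score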
Direction: migration robust z-score: higher = faster migration into the scratch; migration relative to mock: higher = more scratch area covered than mock; nuclei per well: higher = more cells in the well
Call rule: 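Migration changed when robust z exceeds 2 or falls below -2 and mean nuclei number is at least 3300; otherwise not called changed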
Meaning of the calls: active = migration changed; inactive = no migration change, or too few cells

gene | migration robust z-score | migration class with cell-count check | migration relative to mock | nuclei per well, duplicate mean | Outcome
SLC10A6 | 0.83 | migration z between -2 and 2; enough cells | 1.1 | 5458 | inactive
TMEM70 (transmembrane protein 70) | 0.51 | migration z between -2 and 2; enough cells | 1.02 | 5438 | inactive
FBXO38 (F-box protein 38) | -0.62 | migration z between -2 and 2; enough cells | 0.69 | 5724 | inactive
ELK3 (ETS transcription factor ELK3) | -0.44 | migration z between -2 and 2; enough cells | 0.72 | 6012 | inactive
C2orf76 (chromosome 2 open reading frame 76) | 1.14 | migration z between -2 and 2; enough cells | 1.18 | 4680 | inactive
ARHGAP1 (Rho GTPase activating protein 1) | -0.2 | migration z between -2 and 2; enough cells | 0.84 | 6480 | inactive
UBQLNL (ubiquilin like) | 2.12 | migration z above 2; enough cells | 1.43 | 5650 | active
CDC73 (cell division cycle 73) | -0.28 | migration z between -2 and 2; enough cells | 0.82 | 5363 | inactive
FNDC11 (fibronectin type III domain containing 11) | -1.02 | migration z between -2 and 2; enough cells | 0.62 | 5838 | inactive
MITF (melanocyte inducing transcription factor) | -0.76 | migration z between -2 and 2; enough cells | 0.69 | 6350 | inactive
IRGC (immunity related GTPase cinema) | 0.57 | migration z between -2 and 2; enough cells | 1.03 | 6957 | inactive
PCYOX1 (prenylcysteine oxidase 1) | 0.52 | migration z between -2 and 2; enough cells | 0.9 | 6116 | inactive
WNK3 (WNK lysine deficient protein kinase 3) | -0.6 | migration z between -2 and 2; enough cells | 0.69 | 4125 | inactive
MAPK8 (mitogen-activated protein kinase 8) | -0.44 | migration z between -2 and 2; enough cells | 0.72 | 4986 | inactive
KRT31 (keratin 31) | 0.3 | migration z between -2 and 2; enough cells | 0.97 | 5681 | inactive
CCDC107 (coiled-coil domain containing 107) | -0.24 | migration z between -2 and 2; enough cells | 0.83 | 4575 | inactive
KLF11 (KLF transcription factor 11) | 1.25 | migration z between -2 and 2; enough cells | 1.04 | 4263 | inactive
KRTAP10-11 (keratin associated protein 10-11) | -1.83 | migration z between -2 and 2; enough cells | 0.4 | 5418 | inactive
SYNDIG1 (synapse differentiation inducing 1) | -0.83 | migration z between -2 and 2; enough cells | 0.64 | 5618 | inactive
GMFG (glia maturation factor gamma) | -1.47 | migration z between -2 and 2; enough cells | 0.5 | 5249 | inactive
PIN1 (peptidylprolyl cis/trans isomerase, NIMA-interacting 1) | -1.04 | migration z between -2 and 2; enough cells | 0.6 | 4917 | inactive
PTTG1 | 0.03 | migration z between -2 and 2; enough cells | 0.81 | 4464 | inactive
HDGFL1 (HDGF like 1) | 1.56 | migration z between -2 and 2; enough cells | 1.29 | 6152 | inactive

Targets above whose target name begins with K or k (3):
gene | migration robust z-score | migration class with cell-count check | migration relative to mock | nuclei per well, duplicate mean | Outcome
KRT31 (keratin 31) | 0.3 | migration z between -2 and 2; enough cells | 0.97 | 5681 | inactive
KLF11 (KLF transcription factor 11) | 1.25 | migration z between -2 and 2; enough cells | 1.04 | 4263 | inactive
KRTAP10-11 (keratin associated protein 10-11) | -1.83 | migration z between -2 and 2; enough cells | 0.4 | 5418 | inactive
